Literature values, collected in US20030130799A1, “Structure/properties correlation with membrane affinity profile” (priority 2001, published 2003).

Conditions: known ADME properties of the parent compound; cited from earlier work

**Q.** For `CC(C)NCC(O)COc1ccc(CC(N)=O)cc1` (stereo not shown) [atenolol], which CL is on record?
**A.** Its CL is 0.140 L/min.
